Experimental data from patent publication US20110015128A1.
These are yes or no findings as the source states them, for the method shown. Some results given as binding are weak or reduced against the parent protein; the word gives no strength.

The chains behind the UniProt entries cited, without tags or fusion partners. Where a name states a change or a piece, a line headed by the entry shows the natural chain unless it says otherwise.
UniProt P00742: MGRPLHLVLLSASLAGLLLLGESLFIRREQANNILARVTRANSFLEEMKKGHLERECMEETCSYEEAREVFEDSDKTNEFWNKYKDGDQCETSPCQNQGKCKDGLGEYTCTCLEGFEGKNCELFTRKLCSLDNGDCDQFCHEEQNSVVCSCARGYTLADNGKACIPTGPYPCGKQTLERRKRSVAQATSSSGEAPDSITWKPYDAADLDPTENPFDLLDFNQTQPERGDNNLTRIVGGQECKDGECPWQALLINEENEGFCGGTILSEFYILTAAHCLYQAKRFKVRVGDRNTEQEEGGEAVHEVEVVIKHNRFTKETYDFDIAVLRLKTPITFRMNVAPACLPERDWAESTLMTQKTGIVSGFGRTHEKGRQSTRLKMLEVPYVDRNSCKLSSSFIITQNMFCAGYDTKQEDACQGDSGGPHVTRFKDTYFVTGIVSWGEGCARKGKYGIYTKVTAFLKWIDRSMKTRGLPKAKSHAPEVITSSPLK

Target: r-Antidote (recombinant antidote; human factor Xa triple mutant after removal of the RKRRKR linker) (human) (UniProt P00742)
Assay: affinity chromatography on immobilised soybean trypsin inhibitor

- binding: binds
B1: soybean trypsin inhibitor-agarose (STI-Agarose, Sigma Catalog #T0637) (protein, UniProt P01070 25-205, looked up)
chain: DFVLDNEGNPLENGGTYYILSDITAFGGIRAAPTGNERCPLTVVQSRNELDKGIGTIISSPYRIRFIAEGHPLSLKFDSFAVIMLCVGIPTEWSVVEDLPEGPAVKIGENKDAMDGWFRLERVSDDEFNNYKLVFCPQQAEDDKCGDIGISIDHDDGTRRLVVSKNKPLVVQFQKLDKESL
modifications: coupled to agarose
